Source: patent publication US12653799B2, “Compositions and methods for treating Alzheimer's disease” (ELEANORE BENNETT CHARITABLE TRUST #2, priority 2021, dated 2026)
At least one compound was matched to its structure with a doubt left.

Tested on: SH-SY5Y cells
Assay: Cell viability, MTT assay, Aβ42-expressing SH-SY5Y cells
Conditions: PS48 10 μM; pioglitazone 5 μM

For `CCc1ccc(CCOc2ccc(CC3SC(=O)NC3=O)cc2)nc1` (stereo not shown) [pioglitazone], the “cell viability, comparison with PPAR agonist (FIG. 2B)” value was “reversed Aβ-induced cell death”.
